Values of other authors, collected in patent US5525347A, “Composition and methods for treating performance anxiety” (Medical University of South Carolina, priority 1995, dated 1996).

- stability to heat (heat): stabile in light and heat
- stability in light (light): stabile in light and heat
Structure (SMILES): C[N+]1(C)CCC(OC(=O)C(O)(c2ccccc2)C2CCCC2)C1 (centres unmarked) [Glycopyrrolate, 3-Hydroxyl-1,1-dimethylpyrrolidinum bromide-cyclopentylmandelate]
